Values from PubChem BioAssay AID1259254 (NCATS, 2017)
The whole screen tested about 59,000 reagents; below is a random part of them. Of all reagents, about 1,550 (2.6%) got an active call. 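G2 share is only a proxy for re-replication; each gene was hit by three separate siRNAs, and active genes were retested.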 Raw values are not corrected between plates. Entries without a mark were called inactive. The numbers tell different reagents against one gene apart. No sequences are given here. Not given: the amount of reagent.

- Test: 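Genome-wide screen for genes that prevent DNA re-replication in cancer cells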 (primary screen)
- System: human HCT116 colorectal cancer cells
- Knock-down reagent: single siRNA against human genes
- Time to read-out: 3 days
- Read-out: 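Imaged Hoechst DNA stain sorts each cell into a cycle phase by DNA amount; per plate, G2 fraction set to 0% for non-targeting and 100% for GMNN siRNA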
- Direction: G2 robust z-score and G2 cells, % of GMNN control: higher = more G2 cells, more excess DNA replication; raw share of cells in G2: higher = larger share of cells with G2 DNA content
- Active means: 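Active siRNAs have a G2 robust z of 5 or more median absolute deviations over the median, which in these data means about 38% or higher of GMNN control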

gene	siRNA no.	G2 robust z-score	G2 cells, % of GMNN control	raw share of cells in G2 (%)
THOC5	1	-0.635	-1.5	4.47
THOC5	2	0.00507	3	5.09
THOC5	3	3.22	25.6	12.4
MIIP	1	0.255	4.76	3.95
MIIP	2	-0.994	-4.03	2.83
MIIP	3	2.65	21.6	14.3
CLDN18	1	-0.631	-1.47	3.17
CLDN18	2	0.103	3.7	4.1
CLDN18	3	-0.845	-2.98	4.56
RBM23	1	-1.02	-4.21	2.58
RBM23	2	-1.11	-4.83	2.71
RBM23	3	2.13	18	14.3
ALG13	1	1.21	11.5	8.93
ALG13	2	0.506	6.53	6.84
ALG13	3	-0.102	2.25	3.85
ALG13	4	1.19	11.4	9.16
ALG13	5	0.293	5.03	6.5
ALG13	6	-0.426	-0.0305	2.37
ALG13	7	-0.707	-2.01	3.16
ALG13	8	-0.804	-2.69	2.45
ALG13	9	-0.517	-0.67	2.85
RAP1A	1	1.48	13.4	9.57
RAP1A	2	0.59	7.12	7.4
RAP1A	3	1.18	11.3	7.89
NME5	1	-0.247	1.23	6.01
NME5	2	-1.26	-5.92	3.42
NME5	3	-0.712	-2.04	3.31
CRYGC	1	0.458	6.19	5.95
CRYGC	2	-0.385	0.261	5.42
CRYGC	3	-0.818	-2.79	3.07
KLHL24	1	-0.0323	2.74	4.1
KLHL24	2	-0.696	-1.93	2.91
KLHL24	3	0.999	10	8.48
LCE5A	1	-0.354	0.477	3.35
LCE5A	2	0.973	9.81	7.13
LCE5A	3	0.396	5.75	5.1
SUCLG2	1	-0.659	-1.67	3.78
SUCLG2	2	-0.0991	2.27	6.06
SUCLG2	3	0.824	8.76	7.85
MTNAP1	1	-0.0074	2.92	5.64
MTNAP1	2	1.08	10.6	8.51
MTNAP1	3	-0.138	1.99	3.77
SKI	1	0.199	4.37	5.19
SKI	2	-0.142	1.97	5.77
SKI	3	-0.959	-3.78	1.74
FRAT1	1	2.97	23.9	16.1
FRAT1	2	0.748	8.23	7.38
FRAT1	3	0.836	8.85	6.63
NYAP2	1	-0.698	-1.94	3.58
NYAP2	2	1.08	10.6	9.52
NYAP2	3	-0.681	-1.83	2.45

Next part, starting with the last 12 of the part before.
gene	siRNA no.	G2 robust z-score	G2 cells, % of GMNN control	raw share of cells in G2 (%)
MTNAP1	1	-0.0074	2.92	5.64
MTNAP1	2	1.08	10.6	8.51
MTNAP1	3	-0.138	1.99	3.77
SKI	1	0.199	4.37	5.19
SKI	2	-0.142	1.97	5.77
SKI	3	-0.959	-3.78	1.74
FRAT1	1	2.97	23.9	16.1
FRAT1	2	0.748	8.23	7.38
FRAT1	3	0.836	8.85	6.63
NYAP2	1	-0.698	-1.94	3.58
NYAP2	2	1.08	10.6	9.52
NYAP2	3	-0.681	-1.83	2.45
SGK2	1	2.05	17.4	11
SGK2	2	-0.682	-1.83	4.53
SGK2	3	-0.713	-2.05	3.03
GLI3	1	1.74	15.2	9.51
GLI3	2	-1.19	-5.37	2.33
GLI3	3	-0.557	-0.951	2.76
WDR54	1	-0.416	0.0407	4.12
WDR54	2	-0.714	-2.05	2.85
WDR54	3	-0.785	-2.55	1.63
CEACAM4	1	2.65	21.6	15.4
CEACAM4	2	0.856	8.99	7.38
CEACAM4	3	0.315	5.18	5.55
ADARB2-AS1	1	4.21	32.6	14.2
ADARB2-AS1	2	2.86	23.1	12.5
ADARB2-AS1	3	-0.311	0.781	3.71
SKA2	1	0.686	7.79	6.66
SKA2	2	0.0263	3.15	4.64
SKA2	3	0.165	4.13	5.85
GAR1	1	3.77	29.5	12.9
GAR1	2	1.2	11.4	7.69
GAR1	3	-0.157	1.86	5.06
SERF2	1	1.91	16.4	12.7
SERF2	2	-0.379	0.304	4.07
SERF2	3	2.95	23.7	12
H3C2	1	1.24	11.7	10.3
H3C2	2	0.0235	3.13	5.14
H3C2	3	0.0893	3.6	4.62
OGN	1	1.59	14.1	8.03
OGN	2	-0.425	-0.0205	5.2
OGN	3	1.11	10.7	9.11
BPIFA3	1	1.96	16.7	10.5
BPIFA3	2	1.45	13.2	7.28
BPIFA3	3	-0.837	-2.92	1.52
FADS1	1	2.95	23.7	11
FADS1	2	-0.622	-1.41	4.81
FADS1	3	-0.0707	2.47	6.45
